US20250160324A1, “ACIDIFIED OLEOGEL AND METHODS OF USE” (University of Massachusetts, priority 2023, published 2025)
At least one compound was matched to its structure with a doubt left.

Test system: desiccated Salmonella enterica subsp. enterica serovar Enteritidis phage type 30 (ATCC BAA-1045)
Assay: Antimicrobial assay against cells desiccated on stainless-steel coupons
Format: cell-based
Conditions: 200 mM organic acid, 30-min contact, cells desiccated to 75% ERH

With `CCCCCCCC(=O)O` [Caprylic, caprylic/octanoic acid] the “MLR ± SD, Oil with PGPR, 22° C.” value was 0.26 £ 0.18.
